Measurements: the supplement of paper PMC10849652
The other results are listed elsewhere or left out.

Sequences of proteins named here, by UniProt entry; tags and fusion partners are left off. A change or cut given only in a name is not applied to a line headed by its entry.
UniProt P24666: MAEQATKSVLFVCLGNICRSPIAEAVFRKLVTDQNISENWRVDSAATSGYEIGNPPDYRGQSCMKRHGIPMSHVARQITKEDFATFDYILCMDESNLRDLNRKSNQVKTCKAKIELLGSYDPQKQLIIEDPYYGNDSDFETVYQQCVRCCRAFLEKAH
UniProt Q6RW13: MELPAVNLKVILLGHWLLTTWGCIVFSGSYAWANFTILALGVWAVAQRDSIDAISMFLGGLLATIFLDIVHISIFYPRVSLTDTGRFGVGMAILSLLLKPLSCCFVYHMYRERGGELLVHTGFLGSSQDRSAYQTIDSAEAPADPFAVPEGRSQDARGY
UniProt P54922: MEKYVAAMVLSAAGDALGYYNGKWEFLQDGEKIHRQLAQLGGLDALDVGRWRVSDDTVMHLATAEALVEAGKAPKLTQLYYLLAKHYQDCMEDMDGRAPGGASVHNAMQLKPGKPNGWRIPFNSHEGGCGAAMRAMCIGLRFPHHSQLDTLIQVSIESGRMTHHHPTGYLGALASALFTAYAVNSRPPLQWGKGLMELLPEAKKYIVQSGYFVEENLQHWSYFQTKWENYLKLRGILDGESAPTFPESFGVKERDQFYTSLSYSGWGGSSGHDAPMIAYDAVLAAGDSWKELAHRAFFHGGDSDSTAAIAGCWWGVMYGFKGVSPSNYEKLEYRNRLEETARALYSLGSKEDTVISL
UniProt P23526: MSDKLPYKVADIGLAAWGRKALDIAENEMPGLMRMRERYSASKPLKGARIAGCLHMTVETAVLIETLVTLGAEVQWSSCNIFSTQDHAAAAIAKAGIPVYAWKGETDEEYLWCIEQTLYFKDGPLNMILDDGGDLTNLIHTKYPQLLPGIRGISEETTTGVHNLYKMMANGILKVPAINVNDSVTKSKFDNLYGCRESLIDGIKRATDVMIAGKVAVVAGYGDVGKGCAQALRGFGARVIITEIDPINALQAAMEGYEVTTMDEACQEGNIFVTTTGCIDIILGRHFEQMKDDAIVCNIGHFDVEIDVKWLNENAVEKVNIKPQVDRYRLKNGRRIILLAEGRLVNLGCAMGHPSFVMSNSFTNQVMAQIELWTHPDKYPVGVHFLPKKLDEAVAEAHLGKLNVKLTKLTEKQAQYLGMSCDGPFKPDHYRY
UniProt Q13443: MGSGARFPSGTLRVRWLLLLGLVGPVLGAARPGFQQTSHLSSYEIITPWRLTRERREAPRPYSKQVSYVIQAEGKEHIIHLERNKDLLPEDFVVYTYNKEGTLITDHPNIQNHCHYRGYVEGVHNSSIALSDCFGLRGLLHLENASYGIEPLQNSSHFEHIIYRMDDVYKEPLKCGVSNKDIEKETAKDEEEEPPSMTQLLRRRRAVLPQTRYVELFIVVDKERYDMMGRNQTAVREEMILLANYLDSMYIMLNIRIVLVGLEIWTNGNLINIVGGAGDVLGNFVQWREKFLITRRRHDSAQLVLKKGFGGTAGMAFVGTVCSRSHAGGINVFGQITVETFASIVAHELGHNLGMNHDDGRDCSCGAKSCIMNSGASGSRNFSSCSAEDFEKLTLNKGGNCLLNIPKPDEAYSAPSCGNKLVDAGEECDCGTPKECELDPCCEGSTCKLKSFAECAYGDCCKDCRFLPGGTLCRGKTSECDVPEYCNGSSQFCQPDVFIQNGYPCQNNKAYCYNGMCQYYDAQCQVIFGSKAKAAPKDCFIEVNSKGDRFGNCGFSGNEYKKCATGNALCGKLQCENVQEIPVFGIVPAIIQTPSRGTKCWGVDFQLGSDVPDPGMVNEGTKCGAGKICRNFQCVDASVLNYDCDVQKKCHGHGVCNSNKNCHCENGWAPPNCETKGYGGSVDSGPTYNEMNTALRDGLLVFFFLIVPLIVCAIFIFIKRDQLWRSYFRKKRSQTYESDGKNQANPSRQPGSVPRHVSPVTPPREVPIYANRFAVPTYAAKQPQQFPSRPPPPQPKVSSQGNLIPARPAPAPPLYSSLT
UniProt P12814, whole entry, looked up: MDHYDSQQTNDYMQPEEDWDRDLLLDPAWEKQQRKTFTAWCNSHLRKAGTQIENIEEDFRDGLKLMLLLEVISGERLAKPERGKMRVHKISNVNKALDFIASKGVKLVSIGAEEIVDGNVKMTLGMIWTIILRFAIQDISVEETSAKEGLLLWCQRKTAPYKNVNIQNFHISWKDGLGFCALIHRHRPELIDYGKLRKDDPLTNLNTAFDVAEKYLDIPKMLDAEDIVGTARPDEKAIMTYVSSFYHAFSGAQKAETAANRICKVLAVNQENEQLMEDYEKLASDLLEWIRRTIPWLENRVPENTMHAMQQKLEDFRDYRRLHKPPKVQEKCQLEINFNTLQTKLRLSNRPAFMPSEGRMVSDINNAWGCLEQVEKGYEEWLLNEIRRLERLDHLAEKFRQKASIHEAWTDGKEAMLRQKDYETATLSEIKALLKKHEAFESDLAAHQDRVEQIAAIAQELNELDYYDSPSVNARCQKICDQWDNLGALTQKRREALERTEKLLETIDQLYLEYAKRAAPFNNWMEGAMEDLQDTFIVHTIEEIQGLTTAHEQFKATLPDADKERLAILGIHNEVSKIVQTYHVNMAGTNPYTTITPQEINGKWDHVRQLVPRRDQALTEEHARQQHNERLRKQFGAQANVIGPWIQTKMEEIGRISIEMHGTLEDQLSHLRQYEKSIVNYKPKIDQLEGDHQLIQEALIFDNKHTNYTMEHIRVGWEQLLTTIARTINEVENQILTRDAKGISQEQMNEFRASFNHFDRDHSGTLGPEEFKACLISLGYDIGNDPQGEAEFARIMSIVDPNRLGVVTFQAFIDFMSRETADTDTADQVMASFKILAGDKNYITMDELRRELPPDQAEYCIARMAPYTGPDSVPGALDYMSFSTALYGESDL
UniProt Q9UPW5: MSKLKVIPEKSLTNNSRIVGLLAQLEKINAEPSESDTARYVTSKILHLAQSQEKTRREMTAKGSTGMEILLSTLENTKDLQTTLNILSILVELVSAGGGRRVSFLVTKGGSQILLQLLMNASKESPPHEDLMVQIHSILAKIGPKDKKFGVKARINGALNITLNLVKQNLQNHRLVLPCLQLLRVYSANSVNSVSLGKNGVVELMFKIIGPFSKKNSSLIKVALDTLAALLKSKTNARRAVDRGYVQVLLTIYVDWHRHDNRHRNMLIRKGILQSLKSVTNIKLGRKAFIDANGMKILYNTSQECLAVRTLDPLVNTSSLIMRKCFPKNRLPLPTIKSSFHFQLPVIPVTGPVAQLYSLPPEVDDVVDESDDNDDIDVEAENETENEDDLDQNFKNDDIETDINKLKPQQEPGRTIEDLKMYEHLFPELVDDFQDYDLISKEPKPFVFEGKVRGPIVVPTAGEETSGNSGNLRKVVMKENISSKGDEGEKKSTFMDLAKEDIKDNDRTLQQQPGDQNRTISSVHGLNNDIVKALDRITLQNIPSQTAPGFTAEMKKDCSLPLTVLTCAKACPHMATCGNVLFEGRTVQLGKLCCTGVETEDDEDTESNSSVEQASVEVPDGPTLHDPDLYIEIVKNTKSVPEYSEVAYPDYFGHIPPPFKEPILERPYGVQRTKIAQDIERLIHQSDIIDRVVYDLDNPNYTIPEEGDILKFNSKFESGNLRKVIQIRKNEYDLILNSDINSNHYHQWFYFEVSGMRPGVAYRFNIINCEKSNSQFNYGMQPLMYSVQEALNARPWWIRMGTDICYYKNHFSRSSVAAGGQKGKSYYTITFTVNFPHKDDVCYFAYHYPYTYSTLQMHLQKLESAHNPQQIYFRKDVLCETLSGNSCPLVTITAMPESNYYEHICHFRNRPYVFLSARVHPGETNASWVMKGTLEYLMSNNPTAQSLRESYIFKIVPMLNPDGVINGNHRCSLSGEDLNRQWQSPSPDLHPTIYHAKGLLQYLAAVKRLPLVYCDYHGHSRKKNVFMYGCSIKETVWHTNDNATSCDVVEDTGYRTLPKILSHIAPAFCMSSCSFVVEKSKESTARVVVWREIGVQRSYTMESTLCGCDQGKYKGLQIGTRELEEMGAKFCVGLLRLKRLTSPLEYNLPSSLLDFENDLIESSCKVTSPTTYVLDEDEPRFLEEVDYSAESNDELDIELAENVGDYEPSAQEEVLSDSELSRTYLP
UniProt Q7Z6V5: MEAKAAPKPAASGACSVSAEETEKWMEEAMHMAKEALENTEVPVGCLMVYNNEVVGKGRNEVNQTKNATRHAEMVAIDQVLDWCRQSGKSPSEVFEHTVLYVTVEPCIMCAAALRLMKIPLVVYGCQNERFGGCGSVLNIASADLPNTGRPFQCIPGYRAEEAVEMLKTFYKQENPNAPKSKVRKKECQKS
UniProt Q9NX46: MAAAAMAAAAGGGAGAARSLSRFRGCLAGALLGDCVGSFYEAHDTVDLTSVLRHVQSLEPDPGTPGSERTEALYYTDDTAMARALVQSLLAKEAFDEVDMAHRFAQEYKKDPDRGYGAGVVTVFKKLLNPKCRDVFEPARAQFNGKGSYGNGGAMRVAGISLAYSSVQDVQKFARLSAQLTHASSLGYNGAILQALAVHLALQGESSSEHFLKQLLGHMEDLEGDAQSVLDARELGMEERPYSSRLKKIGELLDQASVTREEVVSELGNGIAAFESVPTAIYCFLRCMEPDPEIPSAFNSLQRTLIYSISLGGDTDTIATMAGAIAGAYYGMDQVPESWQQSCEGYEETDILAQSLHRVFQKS
UniProt Q9GZN1, whole entry, looked up: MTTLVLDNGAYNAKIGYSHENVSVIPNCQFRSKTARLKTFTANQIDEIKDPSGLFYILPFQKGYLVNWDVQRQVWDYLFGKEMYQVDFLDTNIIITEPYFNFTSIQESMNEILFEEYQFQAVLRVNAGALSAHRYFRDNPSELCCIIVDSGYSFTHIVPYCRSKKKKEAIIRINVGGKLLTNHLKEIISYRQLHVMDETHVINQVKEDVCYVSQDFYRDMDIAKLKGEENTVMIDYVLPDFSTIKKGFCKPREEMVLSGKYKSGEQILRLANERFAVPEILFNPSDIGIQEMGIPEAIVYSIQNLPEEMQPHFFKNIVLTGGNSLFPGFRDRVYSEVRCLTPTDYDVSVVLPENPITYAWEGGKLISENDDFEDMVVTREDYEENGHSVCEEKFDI
UniProt P35611: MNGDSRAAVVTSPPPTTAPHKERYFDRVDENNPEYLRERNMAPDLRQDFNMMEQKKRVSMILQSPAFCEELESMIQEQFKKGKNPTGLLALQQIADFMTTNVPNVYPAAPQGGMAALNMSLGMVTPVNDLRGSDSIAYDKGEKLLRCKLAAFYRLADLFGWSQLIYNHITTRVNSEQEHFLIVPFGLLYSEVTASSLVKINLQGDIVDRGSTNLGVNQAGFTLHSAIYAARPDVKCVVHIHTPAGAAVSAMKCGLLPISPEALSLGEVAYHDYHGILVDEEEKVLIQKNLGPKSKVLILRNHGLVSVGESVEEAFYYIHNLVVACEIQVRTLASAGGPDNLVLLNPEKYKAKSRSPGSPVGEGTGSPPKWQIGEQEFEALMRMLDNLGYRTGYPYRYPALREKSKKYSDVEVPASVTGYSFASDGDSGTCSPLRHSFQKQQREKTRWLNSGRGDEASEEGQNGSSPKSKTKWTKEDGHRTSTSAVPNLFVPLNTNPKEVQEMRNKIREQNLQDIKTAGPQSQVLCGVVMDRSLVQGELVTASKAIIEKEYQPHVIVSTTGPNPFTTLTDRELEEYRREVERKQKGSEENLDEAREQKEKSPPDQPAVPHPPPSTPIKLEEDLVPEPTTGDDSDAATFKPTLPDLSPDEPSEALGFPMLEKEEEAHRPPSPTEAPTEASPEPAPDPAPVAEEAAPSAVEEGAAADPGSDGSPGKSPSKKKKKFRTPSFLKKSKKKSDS
UniProt Q9UHX3: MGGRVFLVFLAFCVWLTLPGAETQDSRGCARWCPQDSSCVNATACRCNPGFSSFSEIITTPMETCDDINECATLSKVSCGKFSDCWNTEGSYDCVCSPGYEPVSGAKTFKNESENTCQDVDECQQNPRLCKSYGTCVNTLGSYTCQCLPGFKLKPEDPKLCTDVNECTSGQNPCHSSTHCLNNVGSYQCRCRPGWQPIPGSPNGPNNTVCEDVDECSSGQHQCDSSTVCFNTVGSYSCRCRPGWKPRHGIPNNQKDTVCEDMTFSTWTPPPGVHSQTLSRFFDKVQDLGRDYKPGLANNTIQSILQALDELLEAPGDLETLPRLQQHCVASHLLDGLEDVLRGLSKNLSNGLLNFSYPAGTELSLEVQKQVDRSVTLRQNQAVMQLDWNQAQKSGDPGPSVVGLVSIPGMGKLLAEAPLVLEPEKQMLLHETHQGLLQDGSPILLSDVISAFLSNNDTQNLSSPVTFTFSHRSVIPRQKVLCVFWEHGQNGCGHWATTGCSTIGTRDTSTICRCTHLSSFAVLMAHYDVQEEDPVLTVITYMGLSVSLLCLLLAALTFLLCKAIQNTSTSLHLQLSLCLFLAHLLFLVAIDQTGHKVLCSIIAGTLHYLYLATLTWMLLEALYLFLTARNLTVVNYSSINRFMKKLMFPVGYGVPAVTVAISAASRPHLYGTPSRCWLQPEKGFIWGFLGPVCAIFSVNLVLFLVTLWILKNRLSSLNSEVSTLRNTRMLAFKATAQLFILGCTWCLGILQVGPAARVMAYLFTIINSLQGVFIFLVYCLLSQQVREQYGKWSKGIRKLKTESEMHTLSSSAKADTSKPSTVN

The targets below were run with CS(=O)(=O)CCNCc1ccc(-c2ccc3ncnc(Nc4ccc(OCc5cccc(F)c5)c(Cl)c4)c3c2)o1 [lapatinib] (assay: log2 fold change, soluble protein after heating vs DMSO (PISA); higher = thermal stabilisation; K562 lysate, 10 uM; active = over 0.2 and 3.5 SD of the protein, either way, in both replicates (recomputed)).
In short: (§1)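 Following dounce homogenisation of K562 pellets in PBS pH 7.4 with 1 mM MgCl2, crude extract at 1 mg/mL protein was incubated for 30 min with 10 μM compound. Aliquots were then heated for 3 min over 48°C-58°C and pooled, NP-40 was added to 0.5% at 4°C, and soluble protein was recovered as the supernatant at 21,000xg for 90 min. Channel-sum-equalised TMTpro 16plex LC-MS/MS quantified this protein. Each value, from duplicates, is a log-two fold change in thermal stability relative to solvent controls.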
With ACP1 (UniProt P24666) the log2 fold change was inactive: 0.049. ACTN4 (UniProt K7EJH8) was tested, and the log2 fold change was inactive: 0.024. In the case of ACSL3 (UniProt O95573), the log2 fold change is reported as inactive: 0.026. For AIDA (UniProt Q96BJ3), the log2 fold change was inactive: -0.013. In the case of AIMP2 (UniProt Q13155), the log2 fold change is reported as inactive: -0.006. In the case of AGTRAP (UniProt Q6RW13), the log2 fold change is reported as inactive: 0.003. In the case of ADPRH (UniProt P54922), the log2 fold change is reported as inactive: -0.015. ADH5 (UniProt P11766) was tested, and the log2 fold change was inactive: -0.04. With ACTA1 (UniProt P68133) the log2 fold change was inactive: -0.012. For AKR7A2 (UniProt O43488), the log2 fold change was inactive: -0.004. In the case of AGO3 (UniProt Q9H9G7), the log2 fold change is reported as inactive: -0.015. ADRM1 (UniProt Q16186) was tested, and the log2 fold change was inactive: -0.009. With AHSA1 (UniProt O95433) the log2 fold change was inactive: 0.006. ADAMTS5 (UniProt Q9UNA0) was tested, and the log2 fold change was inactive: -0.102. In the case of AHCY (UniProt P23526), the log2 fold change is reported as inactive: -0.003. ACTR2 (UniProt P61160) was tested, and the log2 fold change was inactive: -0.017. In the case of ADAM9 (UniProt Q13443), the log2 fold change is reported as inactive: -0.018. For AIMP1 isoform 2 (UniProt Q12904), the log2 fold change was inactive: -0.019. With ACTB, A0A2R8Y793 the log2 fold change was inactive: -0.012. For ACTN1 isoform 3 (UniProt P12814), the log2 fold change was inactive: -0.01. In the case of AGTPBP1 (UniProt Q9UPW5), the log2 fold change is reported as inactive: 0.008. With ADAT2 (UniProt Q7Z6V5) the log2 fold change was inactive: 0.012. ADPRHL2 (UniProt Q9NX46) was tested, and the log2 fold change was inactive: 0.008. For AFDN (UniProt J3KN01), the log2 fold change was inactive: -0.018. In the case of AGAP3 isoform 4 (UniProt Q96P47), the log2 fold change is reported as inactive: -0.024. In the case of ADI1 (UniProt Q9BV57), the log2 fold change is reported as inactive: 0.014. ACOT9 isoform 4 (UniProt Q9Y305) was tested, and the log2 fold change was inactive: -0.007. For ACTR6 (UniProt Q9GZN1), the log2 fold change was inactive: -0.025. For ADD1 isoform 3 (UniProt P35611), the log2 fold change was inactive: -0.017. With AGPS (UniProt O00116) the log2 fold change was inactive: -0.017. AKR1C2 (UniProt P52895) was tested, and the log2 fold change was inactive: -0.012. With ADGRE2 (UniProt Q9UHX3) the log2 fold change was inactive: -0.074. In the case of AFF4 (UniProt Q9UHB7), the log2 fold change is reported as inactive: 0.003.

What follows are targets tested with CS(=O)(=O)N1CCN(Cc2cc3nc(-c4cccc5[nH]ncc45)nc(N4CCOCC4)c3s2)CC1 [pictilisib] in the same assay as above.
In short: as §1
With ACP1 (UniProt P24666) the log2 fold change was inactive: -0.038. For ACTN4 (UniProt K7EJH8), the log2 fold change was inactive: 0.089. In the case of ACSL3 (UniProt O95573), the log2 fold change is reported as inactive: 0.013. With AIDA (UniProt Q96BJ3) the log2 fold change was inactive: -0.026. With AIMP2 (UniProt Q13155) the log2 fold change was inactive: 0.015. With AGTRAP (UniProt Q6RW13) the log2 fold change was inactive: 0.043. In the case of ADPRH (UniProt P54922), the log2 fold change is reported as inactive: -0.01. For ADH5 (UniProt P11766), the log2 fold change was inactive: -0.025. ACTA1 (UniProt P68133) was tested, and the log2 fold change was inactive: 0.002. With AKR7A2 (UniProt O43488) the log2 fold change was inactive: -0.012. With AGO3 (UniProt Q9H9G7) the log2 fold change was inactive: -0.157. For ADRM1 (UniProt Q16186), the log2 fold change was inactive: -0.012. In the case of AHSA1 (UniProt O95433), the log2 fold change is reported as inactive: 0.027. With ADAMTS5 (UniProt Q9UNA0) the log2 fold change was inactive: -0.015. AHCY (UniProt P23526) was tested, and the log2 fold change was inactive: -0.011. In the case of ACTR2 (UniProt P61160), the log2 fold change is reported as inactive: -0.031. With ADAM9 (UniProt Q13443) the log2 fold change was inactive: 0.002. AIMP1 isoform 2 (UniProt Q12904) was tested, and the log2 fold change was inactive: -0.004. In the case of ACTB, A0A2R8Y793, the log2 fold change is reported as inactive: -0.012. With ACTN1 isoform 3 (UniProt P12814) the log2 fold change was inactive: -0.009. In the case of AGTPBP1 (UniProt Q9UPW5), the log2 fold change is reported as inactive: -0.103. With ADAT2 (UniProt Q7Z6V5) the log2 fold change was inactive: 0.058. In the case of ADPRHL2 (UniProt Q9NX46), the log2 fold change is reported as inactive: -0.033. For AFDN (UniProt J3KN01), the log2 fold change was inactive: -0.025. AGAP3 isoform 4 (UniProt Q96P47) was tested, and the log2 fold change was inactive: -0.066. ADI1 (UniProt Q9BV57) was tested, and the log2 fold change was inactive: 0.043. ACOT9 isoform 4 (UniProt Q9Y305) was tested, and the log2 fold change was inactive: -0.081. With ACTR6 (UniProt Q9GZN1) the log2 fold change was inactive: 0.059. In the case of ADD1 isoform 3 (UniProt P35611), the log2 fold change is reported as inactive: 0.003. With AGPS (UniProt O00116) the log2 fold change was inactive: -0.049. In the case of AKR1C2 (UniProt P52895), the log2 fold change is reported as inactive: -0.022. With ADGRE2 (UniProt Q9UHX3) the log2 fold change was inactive: -0.009. With AFF4 (UniProt Q9UHB7) the log2 fold change was inactive: -0.007.

What follows are targets tested with C[C@@H](Oc1cc(-c2cnn(C3CCNCC3)c2)cnc1N)c1c(Cl)ccc(F)c1Cl [crizotinib] in the same assay as above.
In short: as §1
In the case of ACP1 (UniProt P24666), the log2 fold change is reported as inactive: 0.111. ACTN4 (UniProt K7EJH8) was tested, and the log2 fold change was inactive: -0.037. In the case of ACSL3 (UniProt O95573), the log2 fold change is reported as inactive: -0.03. AIDA (UniProt Q96BJ3) was tested, and the log2 fold change was inactive: -0.002. AIMP2 (UniProt Q13155) was tested, and the log2 fold change was inactive: -0.047. For AGTRAP (UniProt Q6RW13), the log2 fold change was inactive: -0.025. ADPRH (UniProt P54922) was tested, and the log2 fold change was inactive: -0.053. ADH5 (UniProt P11766) was tested, and the log2 fold change was inactive: -0.006. For ACTA1 (UniProt P68133), the log2 fold change was inactive: 0. AKR7A2 (UniProt O43488) was tested, and the log2 fold change was inactive: 0.054. For AGO3 (UniProt Q9H9G7), the log2 fold change was inactive: 0.031. With ADRM1 (UniProt Q16186) the log2 fold change was inactive: -0.05. With AHSA1 (UniProt O95433) the log2 fold change was inactive: 0.011. In the case of ADAMTS5 (UniProt Q9UNA0), the log2 fold change is reported as inactive: -0.139. AHCY (UniProt P23526) was tested, and the log2 fold change was inactive: 0.037. For ACTR2 (UniProt P61160), the log2 fold change was inactive: 0.015. ADAM9 (UniProt Q13443) was tested, and the log2 fold change was inactive: 0.03. In the case of AIMP1 isoform 2 (UniProt Q12904), the log2 fold change is reported as inactive: -0.05. In the case of ACTB, A0A2R8Y793, the log2 fold change is reported as inactive: -0.011. ACTN1 isoform 3 (UniProt P12814) was tested, and the log2 fold change was inactive: 0.014. For AGTPBP1 (UniProt Q9UPW5), the log2 fold change was inactive: -0.121. In the case of ADAT2 (UniProt Q7Z6V5), the log2 fold change is reported as inactive: 0.008. With ADPRHL2 (UniProt Q9NX46) the log2 fold change was inactive: 0.031. In the case of AFDN (UniProt J3KN01), the log2 fold change is reported as inactive: -0.026. With AGAP3 isoform 4 (UniProt Q96P47) the log2 fold change was inactive: -0.024. In the case of ADI1 (UniProt Q9BV57), the log2 fold change is reported as inactive: -0.067. ACOT9 isoform 4 (UniProt Q9Y305) was tested, and the log2 fold change was inactive: -0.032. For ACTR6 (UniProt Q9GZN1), the log2 fold change was inactive: -0.03. In the case of ADD1 isoform 3 (UniProt P35611), the log2 fold change is reported as inactive: 0.014. AGPS (UniProt O00116) was tested, and the log2 fold change was inactive: -0.02. AKR1C2 (UniProt P52895) was tested, and the log2 fold change was inactive: -0.059. ADGRE2 (UniProt Q9UHX3) was tested, and the log2 fold change was inactive: 0.024. With AFF4 (UniProt Q9UHB7) the log2 fold change was inactive: -0.033.
